## Library screening results

A: 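Whole-cell assay for inhibitors of Mycobacterium tuberculosis growth, labelled Cornell in the record; the read-out is not stated. The concentration is filed as 10 mM, unlikely as a test dose, so the dose is not known. The record gives no direction; compounds strong in two other growth screens of this library score well above the rest, so higher reads as stronger inhibition. Size under these conditions: about 53,000 compounds, about 900 of them at 50% or above in at least one test.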
B: 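Assay on Mycobacterium tuberculosis, filed only as a heat shock assay from Cornell; the read-out is not stated. The concentration is filed as 10 mM, unlikely as a test dose, so the dose is not known. Direction is inferred from retests: higher values go with stronger inhibition. Of about 69,000 compounds tested this way, about 930 (1.4%) reached 50% or more in at least one test.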

The filed quantity is “Percent Effect” (%).
The record does not define 0% and 100%; most values in the screen are far below 50% and negative numbers occur (in some assays of this library far below -100).
Compounds were drawn at random from those tested, without regard to their results.

For CS(=O)(=O)NCCCN1CCCC1c1ccccc1 (stereo unspecified) the result was A: 34.65%; B: 0.9853%.
For CCN(CC)C(CNCc1ccc(C)o1)c1ccco1 (stereo unspecified) the result was A: 10.86%; B: 7.632%.
For Cc1cc(C(=O)N2CCN(CC(O)Cn3cccn3)CC2)c(C)o1 (stereo unspecified) the result was A: -14.6%; B: -17.51%.
For CCn1c(CC2CCN(S(=O)(=O)Cc3ccccc3)CC2)nn(C)c1=O the result was A: -15.78%; B: 20.9%.
For Cc1ccccc1CN1CCN(C(C)c2nc(C3CC3)no2)CC1 (stereo unspecified) the result was B: -40.93%.
For CCn1ncc2c1CCCC2NCc1ccc2c(c1)CCO2 (stereo unspecified) the result was A: 9.915%; B: -5.016%.
For Cc1c(C(=O)NCCC(C)C)nnn1-c1cccc2c1CCN(C)C2 the result was A: 11.15%; B: -24.73%.
For O=C(NCc1cnn2cccnc12)c1cccc(CC2CCNCC2)c1 the result was B: 70.42%.
For Cc1cccc(-c2noc([C@@H]3C[C@@H](O)CN3C)n2)c1 the result was A: -4.976%; B: -39.64%.
For O=C(NCCc1c[nH]cn1)c1ccc2c(c1)C(=O)N(C1CCCC1)C2=O the result was A: 2.482%; B: -9.024%.
For O=C(CN1CCc2ccccc21)Nc1ccc(OC(F)F)cc1 the result was A: -13.1%; B: 99.06%.
For COc1ccc2cc(C(=O)N3CCCCC3CC(N)=O)[nH]c2c1 (stereo unspecified) the result was A: 15.66%; B: 7.923%.
For CN(Cc1noc(C2CC2)n1)C1CCN(CCS(C)(=O)=O)C1 (stereo unspecified) the result was B: -13.74%.
For O=S(=O)(NCCC(O)c1cccs1)c1ccccc1 (stereo unspecified) the result was A: -3.466%; B: 5.341%.
For CC(C)c1cc(CSCCC(=O)O)no1 the result was A: 14.11%; B: 0.1097%.
For O=C(c1ccccn1)N1CCCC(c2cc(C(F)F)n3ncnc3n2)C1 (stereo unspecified) the result was A: 0.5266%; B: 4.177%.
For CCc1cnc(C(C)NC(=O)N2CCCN(CC(F)F)CC2)s1 (stereo unspecified) the result was A: -17.9%; B: -0.5232%.
For COCC1CN(C(=O)c2cccn2C)Cc2ncnn2C1 (stereo unspecified) the result was A: -32.12%; B: -13.33%.
For CCn1nc2c(cc1=O)CN(CC(=O)N(C)c1nccs1)CC2 the result was A: -30.19%; B: -15.17%.
For COc1ccc(F)cc1S(=O)(=O)NCC(O)c1sccc1C (stereo unspecified) the result was A: -5.747%; B: 19.22%.
For CC(C)N1CC(C(=O)NC(C)(C)CNC(=O)OC(C)(C)C)CC1=O (stereo unspecified) the result was B: 10.65%.
For CCc1nsc(NC2CCOC3(CCCC3)C2)n1 (stereo unspecified) the result was A: 16.43%; B: -7.302%.
For O=C(C1CCOCC1)N1CCC(OCc2cccnc2)CC1 the result was A: -13.76%; B: 17.68%.
For CS(=O)(=O)Nc1cnn(Cc2cccc(Cl)c2)c1 the result was A: -11.14%; B: -3.827%.
For Cc1cnccc1CN(C)C(=O)C(C)(C)NC(=O)c1cccs1 the result was A: 16.3%; B: 17.58%.
For Brc1cnc(NCc2ccccc2N2CCOCC2)nc1 the result was A: 20.09%; B: 4.365%.
For O=C(CNc1nc(C2CC2)ns1)N1CCc2sccc2C1 the result was A: -29.34%; B: 6.05%.
For CC[C@@]1(O)CCN(c2ncc(Cl)cc2C(F)(F)F)C[C@H]1O the result was A: -12.93%; B: -8.575%.
For CC(C)N(C)C(=O)C1CSCN1S(=O)(=O)c1ccccc1F (stereo unspecified) the result was B: 6.918%.
For Cc1nc(C(C)C)sc1C(=O)NCCNc1ncccc1C#N the result was B: 11.2%.
For Cc1cc(CN(C)C(=O)C(c2cccnc2)N2CCOCC2)n[nH]1 (stereo unspecified) the result was A: -21.05%; B: 11.62%.
For CN1CCN(C2CCN(c3ccnc(-c4ccccc4)n3)CC2)C1=O the result was B: 7.525%.
For COc1cccc2c1OCC(C(=O)N1CCSCC1)C2 (stereo unspecified) the result was A: 4.581%; B: 17.29%.
For CN(C)Cc1cnc2n1CCN(C(=O)Cc1ccsc1)CC2.O=C(O)C(F)(F)F the result was A: 5.419%; B: -28.66%.
For O=C(CCc1cc2n(n1)CCNC2)NCCS(=O)(=O)N1CCCC1 the result was A: 5.146%; B: 13.25%.
For O=C(O)C(F)(F)F.O=C(O)C(F)(F)F.[H][C@@]12C[C@@H](Oc3ccc(C)cc3)CN1CCN(c1ncc(F)cn1)C2 the result was A: 45.26%; B: 19.77%.
For CCn1ncc(CN2CCN(C(=O)Cn3cc(Br)c(C)n3)CC2)c1C the result was A: -42.03%; B: 1.848%.
For COCC(=O)N1CCN(C)CC(Cc2cc(N(C)C)ncn2)C1 (stereo unspecified) the result was A: 14.46%; B: 4.986%.
For Cc1nc(N2CCCC2)nc2c1CCN(C(=O)N(C)C)CC2 the result was A: 21.2%; B: -3.88%.
For COCC(C)(O)CNC(=O)Nc1cccc(OC)c1OC (stereo unspecified) the result was A: -10.67%; B: 13%.
For Cc1ncsc1CCN(C)Cc1cc2n(n1)CCN(S(C)(=O)=O)C2 the result was A: 14.45%; B: 5.172%.
For CNc1cncc(C2CCN(S(C)(=O)=O)CC2)n1 the result was A: 15.88%; B: -0.9028%.
For CO[C@H]1CN(Cc2ccc(F)c(F)c2)C[C@@]12CCCO2 the result was B: -10.5%.
For COc1ccc(C2=CCN(C(=O)CN(C)CC(N)=O)CC2)cc1 the result was A: 2.461%; B: 7.403%.
For NCc1cccc(-c2cccnc2C(=O)NCCN2CCOCC2)c1 the result was A: 4.63%; B: 7.291%.

Some entries from above, unchanged:

| Compound | A | B |
|---|---|---|
| `COCC(=O)N1CCN(C)CC(Cc2cc(N(C)C)ncn2)C1` (stereo unspecified) | 14.46 | 4.986 |
| `CCn1ncc(CN2CCN(C(=O)Cn3cc(Br)c(C)n3)CC2)c1C` | -42.03 | 1.848 |
| `O=C(NCCc1c[nH]cn1)c1ccc2c(c1)C(=O)N(C1CCCC1)C2=O` | 2.482 | -9.024 |

Source: ChEMBL document CHEMBL3988442, “University of Dundee, Small-Polar-MMV Screening Library” (2021).